Measurements reported in the supplement of paper PMC3334620.
Over roughly 33,000 sequences, “E-score (-0.5 to 0.5)” has its median near -0.015; the highest 2% begin near 0.3. This is one part of the list.

target: T1, Abf1 (UniProt P14164); assay: PBM E-score (8-mer binding enrichment) (E-score (-0.5 to 0.5)); higher = stronger / more preferred TF binding; settings: protein concentration: 200 nM; construct: GST-full length
T1 sequence: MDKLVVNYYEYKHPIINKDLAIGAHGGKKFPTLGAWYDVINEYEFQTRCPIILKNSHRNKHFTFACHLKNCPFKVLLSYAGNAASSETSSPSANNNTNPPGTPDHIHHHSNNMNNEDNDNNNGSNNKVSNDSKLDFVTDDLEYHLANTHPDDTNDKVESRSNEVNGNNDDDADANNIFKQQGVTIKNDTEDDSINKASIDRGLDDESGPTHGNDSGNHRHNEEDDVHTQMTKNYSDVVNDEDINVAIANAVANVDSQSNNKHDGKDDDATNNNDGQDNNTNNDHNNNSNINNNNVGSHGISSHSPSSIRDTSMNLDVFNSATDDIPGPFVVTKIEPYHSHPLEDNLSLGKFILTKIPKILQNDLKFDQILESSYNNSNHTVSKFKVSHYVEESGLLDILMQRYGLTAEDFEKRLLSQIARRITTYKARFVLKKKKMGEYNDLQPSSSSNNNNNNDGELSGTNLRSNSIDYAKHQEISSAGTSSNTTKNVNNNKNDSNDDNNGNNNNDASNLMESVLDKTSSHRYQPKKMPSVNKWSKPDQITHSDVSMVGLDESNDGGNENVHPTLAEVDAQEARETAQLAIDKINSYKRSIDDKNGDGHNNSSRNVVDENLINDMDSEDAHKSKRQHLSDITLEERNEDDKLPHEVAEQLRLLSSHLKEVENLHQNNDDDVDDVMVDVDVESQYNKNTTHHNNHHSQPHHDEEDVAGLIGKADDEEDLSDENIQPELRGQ
Outline: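 Using PURExpress in vitro transcription/translation, GST-tagged yeast transcription factors were made in full-length or DNA-binding-domain form. These were applied at about 100-200 nM to double-stranded universal all-10-mer Agilent arrays, and bound protein was detected with fluorescent anti-GST. Scans were normalised with masliner before the Universal PBM Analysis Suite assigned E-scores to ungapped eight-base words pooled with their reverse complements.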

Row | Sequence | PBM E-score
1 | CGGCCCAA | -0.144
2 | CGGAACCA | 0.129
3 | ATTGATGA | 0.187
4 | ACAACTAT | 0.112
5 | CATCTTAC | 0.0554
6 | TCTATAAA | 0.0905
7 | CCCATGCA | -0.0547
8 | ACACTAGA | 0.156
9 | ATAGTCGA | 0.0241
10 | CGGATATC | 0.22
11 | AGCATAGG | -0.188
12 | GCCATTAC | 0.0234
13 | CAGGCCCC | -0.234
14 | CATTCCGG | -0.207
15 | CCAATATA | -0.02
16 | ACCTATCG | 0.183
17 | ATGGCTTA | 0.0729
18 | TTCACGAA | 0.267
19 | ACAAGGGG | -0.272
20 | TACTTTAA | -0.0873
21 | AGGGCTTC | 0.0312
22 | ATCAAGAT | -0.116
23 | GGCCGATA | 0.0259
24 | CAGCAATA | 0.057
25 | CCCCAGTC | -0.303

Row | Sequence | PBM E-score
26 | AAGCTAGG | -0.232
27 | GCTATAGC | -0.324
28 | AATAAGCT | -0.00627
29 | ACCACCAT | -0.113
30 | GCCCTTTA | -0.206
31 | GCTTGTTA | 0.14
32 | CGTCTTGC | 0.0551
33 | GATTTAAA | -0.00246
34 | CGTCTTTA | 0.301
35 | ACCCCTTC | -0.192
36 | CATCGCCG | -0.0204
37 | CCACCGGC | -0.142
38 | GATTTTGC | -0.127
39 | GCGACACC | -0.189
40 | CCCTTGCC | -0.191
41 | CCGGGAAC | -0.12
42 | ATTCTTAA | 0.189
43 | ATCGGGTC | -0.0582
44 | CAGCACTC | -0.222
45 | ACCTCCAC | -0.11
46 | GAGGACAC | -0.21
47 | ACTGATCT | 0.0694
48 | GCGAGAGA | -0.155
49 | CGTTAGAG | 0.104
50 | ATGTGGTA | 0.0111

Row | Sequence | PBM E-score
51 | GCTATCCA | 0.00713
52 | ACATGCGA | 0.123
53 | GCGGCAAC | 0.0759
54 | GGCGAGGA | -0.186
55 | AGGATAGG | -0.183
56 | GAGTTATA | 0.0665
57 | TCGTCAGA | 0.125
58 | GCCATACC | -0.367
59 | CGGACTAG | -0.328
60 | CCCTTTTA | -0.067
61 | GAGCTTGC | -0.202
62 | ACAATTGG | -0.125
63 | AACATTTC | -0.031
64 | AAGTAGCC | -0.0764
65 | GACGTGGA | 0.0164
66 | AGAGAGAC | -0.152
67 | GCGAATTA | 0.131
68 | CTTGCGTC | -0.0741
69 | TAAAAGGA | 0.0454
70 | GGTAATCA | 0.16
71 | CCGACTCC | -0.176
72 | CCAAGCGC | 0.149
73 | AAAGAAGC | 0.0334
74 | CCTCCTTC | -0.337
75 | AGTTTACA | -0.0916

Row | Sequence | PBM E-score
76 | AAATCCAT | 0.0895
77 | AGCTACAG | -0.173
78 | ATGTGAAT | 0.0305
79 | ACAGCGCA | -0.101
80 | ATCCGGCG | 0.0064
81 | ATACGGAT | 0.297
82 | GGACTGCC | -0.249
83 | ATTAGCAC | -0.0543
84 | CCGACCGA | -0.109
85 | CTACCCCC | -0.358
86 | GAGCCGCA | -0.0431
87 | GAATCTGC | -0.234
88 | TCGCGGAA | 0.0001
89 | AGGTACCG | 0.0478
90 | CGAATTGC | -0.045
91 | GGACTATA | -0.0253
92 | TAGTCTGA | 0.0194
93 | AGCGGAGC | -0.207
94 | GGGCGTTA | -0.0753
95 | GTCCGACA | 0.0611
96 | CGGACACC | -0.117
97 | GTCCCATA | 0.117
98 | CAGGAGGG | -0.248
99 | GGCAAATA | -0.0106
100 | CATCGGGA | 0.0994

Row | Sequence | PBM E-score
101 | ATGATTTA | 0.296
102 | ACACCGAC | -0.134
103 | CGTCCACA | 0.0748
104 | CTCTCATC | 0.0174
105 | CCCGGATA | -0.0473
106 | CCGCCGCA | -0.191
107 | CGGATCAA | -0.138
108 | ACGGGTTC | 0.0362
109 | ACCCTAAT | -0.122
110 | AAGATGTA | 0.109
111 | CATAATTA | 0.211
112 | CTCCGAGC | -0.129
113 | TAAGACAA | 0.12
114 | GGCTCTAC | -0.187
115 | ATCGACGG | 0.287
116 | GACCCTCC | -0.204
117 | TCAACGCA | -0.00848
118 | GGAACACC | -0.0556
119 | AGAACTAA | -0.0469
120 | GCAACCAA | -0.0617
121 | CTTCCCAC | -0.101
122 | CCATTCGA | -0.0663
123 | CGTAGAGC | -0.0212
124 | GACGGTGA | 0.219
125 | GGGCTGAA | 0.0408

Row | Sequence | PBM E-score
126 | ATCGATTC | 0.185
127 | CGTTGCCA | 0.0207
128 | CGTGGACC | 0.026
129 | AGTTTTTC | 0.0708
130 | AACGCAGA | -0.102
131 | ATCGGCTG | -0.0528
132 | CACACACG | 0.212
133 | AGAGATAA | 0.00936
134 | CAGCGAAC | 0.0423
135 | GGAGGCAA | -0.107
136 | AGGTCGAG | -0.0481
137 | GTGTCCCA | 0.142
138 | ATCAGGGG | -0.251
139 | AGAAGGGC | -0.148
140 | GGCACATA | 0.0843
141 | GCGCAATA | -0.0465
142 | ACGTCGCA | 0.167
143 | ACTGGGCA | -0.0699
144 | GTAATATA | 0.24
145 | CGGGCACG | -0.0385
146 | AACCTTCT | -0.0917
147 | CCGCTAGG | -0.292
148 | CACCACAA | 0.0473
149 | GTATGCTA | 0.1
150 | AATTTCAA | 0.0683

7 consecutive records already listed:
Row | Sequence | PBM E-score
63 | AACATTTC | -0.031
64 | AAGTAGCC | -0.0764
65 | GACGTGGA | 0.0164
66 | AGAGAGAC | -0.152
67 | GCGAATTA | 0.131
68 | CTTGCGTC | -0.0741
69 | TAAAAGGA | 0.0454

The list continues:

Row | Sequence | PBM E-score
151 | ACAAACCT | -0.0688
152 | CTCGTAAC | 0.186
153 | GTAAGAAC | 0.162
154 | ATATAAGG | 0.0168
155 | TATCACGA | 0.366
156 | CCATCAGG | -0.303
157 | CTCTCGTC | 0.011
158 | CGCACATC | -0.113
159 | GAAGTGCC | -0.0745
160 | AAGGAACA | -0.0655
161 | AATGGCCG | -0.0244
162 | ATATCGTG | 0.318
163 | ATTCGGCC | -0.0888
164 | GTCATCCA | 0.2
165 | GGGATTAC | -0.17
166 | ACTTTCCA | 0.132
167 | CATTTAGA | -0.0182
168 | CTCAGAGA | -0.0765
169 | TGGTTAAA | 0.013
170 | TATGCATA | 0.0797
171 | AGGACCCT | -0.208
172 | CGTAAAAA | 0.279

Individual results from above:
ACAAACCT – PBM E-score: -0.0688
AATGGCCG – PBM E-score: -0.0244
AAGGAACA – PBM E-score: -0.0655
ATTCGGCC – PBM E-score: -0.0888
